Test results taken from patent US20130225503A1, “TEX14 PEPTIDES AS NOVEL ANTITUMOR AGENTS” (Baylor Licnensing Group, priority 2009, published 2013).
No constants are given. Whether binding was seen depends on the method and setting. For some of these results: In cells and extracts the contact can be indirect. Some results given as binding are weak or reduced against the parent protein; the word gives no strength. For some of these results: Sequences can lack the tags named with a protein. Each block holds one molecule with its values, some of them ahead of it.

Chains of the proteins cited; added tags and fusions are not shown. Residues count along the entry.
UniProt Q99816, residues 131-190: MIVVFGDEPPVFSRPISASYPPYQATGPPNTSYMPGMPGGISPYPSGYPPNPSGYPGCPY
UniProt Q8WUM4, residues 771-830: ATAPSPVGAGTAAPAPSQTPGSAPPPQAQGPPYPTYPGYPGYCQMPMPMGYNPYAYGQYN

What was measured:
[1] = target: T1, hinge region of human CEP55 (CEP) (human) (UniProt Q53EZ4); assay: mammalian two-hybrid in HEK293T cells (mCherry / Renilla luciferase)
T1 sequence (looked up): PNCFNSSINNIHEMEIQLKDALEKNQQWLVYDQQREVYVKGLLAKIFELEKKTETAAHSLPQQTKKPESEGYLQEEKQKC

[2] = target: T2, full-length mouse CEP55 (mouse, UniProt Q8BT07 1-462); assay: yeast two-hybrid
T2 construct: whole, on cells; Yeast two-hybrid fusion with a GAL4 domain (pGBKT7 or pGADT7)
T2 sequence (looked up): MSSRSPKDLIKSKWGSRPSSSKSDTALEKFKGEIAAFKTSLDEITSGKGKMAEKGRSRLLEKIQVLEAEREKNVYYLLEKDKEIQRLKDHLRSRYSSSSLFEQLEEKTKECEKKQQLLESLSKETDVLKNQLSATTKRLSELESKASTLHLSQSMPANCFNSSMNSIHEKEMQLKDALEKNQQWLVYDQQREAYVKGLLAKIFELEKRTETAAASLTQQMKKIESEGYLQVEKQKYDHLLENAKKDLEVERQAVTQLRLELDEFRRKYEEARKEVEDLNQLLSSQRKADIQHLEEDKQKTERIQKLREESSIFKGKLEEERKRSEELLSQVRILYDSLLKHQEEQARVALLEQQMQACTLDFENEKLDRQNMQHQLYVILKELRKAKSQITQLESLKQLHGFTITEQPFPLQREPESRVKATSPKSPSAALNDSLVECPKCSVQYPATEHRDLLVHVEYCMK
Method: Protein-protein interactions were evaluated by using the Matchmaker Two-Hybrid System 3 (Clontech) as described previously (10). Mouse full-length TEX14 and MLKP1 were previously subcloned into the Matchmaker GAL4 two-hybrid pGBKT7 and pGADT7 vectors (10). The constructs of full-length mouse and human CEP55, human TEX14, truncated mouse CEP55-C1, and truncated mouse TEX14-T1, T2, T1[…]T2, T3, T4, and T4-C were made by using the Matchmaker GAL4 two-hybrid pGBKT7 bait vector and pGADT7 prey vectors. Some Y2H interactions were examined with an oxygen biosensor assay (Clontech PT3584-1) that measured the fluorescence emitted by an oxygen-sensing platform that detects GAL4.
To determine the relevance of this GPPX3Y motif as it relates to the interaction of TEX14 with CEP55, we performed yeast two-hybrid assays with mouse TEX14 amino acids 756 to 815 that contain the GPPX3Y motif (FIG. 3A). These 60 amino acids interacted with full-length CEP55 (FIGS. 3B and C). Conversely, an 80-amino-acid fragment of CEP55 (C1) that contains the hinge region interacted with full-length TEX14, the C terminus (T3), and GPPX3Y-containing fragment (T4) but not a shorter sequence that lacked the GPPX3Y motif (T4-C) (FIG. 3A to C). Thus, similar GPPX3Y-containing regions of TEX14, ALIX, and TSG101 interact with the hinge region of CEP55.

[3] = target: T3, MYC-CEP55 (full-length mouse CEP55 with N-terminal MYC tag) (mouse) (UniProt Q8BT07); assay: co-immunoprecipitation from HEK293T cells, both directions, Western blot
T3 sequence (looked up): T2 sequence (looked up)

binding [1]: binds
Molecule: region including the GPPX3Y motif of human TSG101 (TSG) (from UniProt Q99816 131-190)

binding [1]: binds
Molecule: region including the GPPX3Y motif of human ALIX (ALIX) (from UniProt Q8WUM4 771-830)

binding [2]: binds
B1: long C-terminal domain of mouse TEX14 (T3) (protein, UniProt Q7M6U3 513-1450, looked up)
chain: GAQKTQPTESPRGQSYEPHPDVNICLGLTSEYQKDPPDLDIKELKEMGSQPHSPTDHSFLTVKPTLAPQTLDSSLSAQKPDNANVPSPPAACLAEEVRSPTASQDSLCSFEINEIYSGCLTLGTDKEEECLGTAASPEGDRPNQGDELPSLEEELDKMERELHCFCEEDKSISEVDTDLLFEDDDWQSDSLGSLNLPEPTREAKGKTSSWSKTDEYVSKCVLNLKISQVMMQQSAEWLRKLEQEVEELEWAQKELDSQCSSLRDASLKFANAKFQPAVGPPSLAYLPPVMQLPGLKQPENGGTWLTLARSPGNEREFQEGHFSKKPEKLSACGWKPFTQVSEESRGDCSELNNQLPTLRGPGKQSTGEQLPSTQEARESLEKNTNQNSRSMASVSSEIYATKSRNNEDNGEAHLKWRLAVKEMAEKAVSGQLLLPPWNPQSSAPFESKVENESTPLPRPPIRGPESTEWQHILEYQRENDEPKGNTKFGKMDNSDCDKNKHSRWTGLQRFTGIRYPFFRNHEQPEQNEASQASCDTSVGTEKFYSTSSPIGDDFERFQDSFAQRQGYVEENFQIREIFEKNAEILTKPQFQAIQCAEDKQDETLGETPKELKEKNTSLTDIQDLSSITYDQDGYFKETSYKTPKLKHAPTSASTPLSPESISSAASHYEDCLENTTFHVKRGSTFCWNGQEAMRTLSAKFTTVRERAKSLESLLASSKSLPAKLTDSKRLCMLSETGSSNVSAAFVTSTHATKRKSLPRELAEATSQQHLDELPPPAQELLDEIEQLKQQQVSSLASHENTARDLSVTNKDKKHLEEQETNSSKDSSFLSSREIQDLEDTERAHSSLDEDLERFLQSPEENTALLDPTKGSTREKKNKDQDVVEQKRKKKESIKPERRESDSSLGTLEEDELKPCFWKRLGWSEPSRIIVLDQSDLSD

binding [3]: binds
B2: full-length mouse TEX14 (other, UniProt Q7M6U3 1-1450, looked up)
chain: MSRGAPFPVPCPVLLGTFTDDSLEAQLHEYAKQGNCVKLKKILKKGVCVDAVNTQGQSALFVAALLGHVKLVDVLVDYGSDPNHRCFDGSTPVHAAAFSGNQWILSKLLTAGGDLRLHDEKGRNPQAWALTAGKDRSTQMVEFMQRCTSHMKAIIQGFSYDLLKKIDSPQRLIGSPPWFGSLIQGSPNSSPNRQLKPGIISAQNIYSFGFGKFYLTSGMQLTYPGSLPVIGEKEVVQADDEPTFSFFSGPYMVMTNLVWNRSRVTVKELNLPTRPHCSRLRLADLLIAEQEHSSNLRHPNLLQLMAVCLSRDLEKIRLVYERITVGTLFSVLHERRSQFPVLHMEVIVHLLLQVADALIYLHSRGFIHRSLSSYAVHIVSAGEARLTNLEYLTESQDSGAHRNVTRMPLPTQLYNWAAPEVVLQKAATVKSDIYSFSVIIQEILTDSIPWNGLDGSLVKETIALGNYLEADVRLPEPYYDIVKSGIHAKQKNRTMNLQDIRYILKNDLKEFIGAQKTQPTESPRGQSYEPHPDVNICLGLTSEYQKDPPDLDIKELKEMGSQPHSPTDHSFLTVKPTLAPQTLDSSLSAQKPDNANVPSPPAACLAEEVRSPTASQDSLCSFEINEIYSGCLTLGTDKEEECLGTAASPEGDRPNQGDELPSLEEELDKMERELHCFCEEDKSISEVDTDLLFEDDDWQSDSLGSLNLPEPTREAKGKTSSWSKTDEYVSKCVLNLKISQVMMQQSAEWLRKLEQEVEELEWAQKELDSQCSSLRDASLKFANAKFQPAVGPPSLAYLPPVMQLPGLKQPENGGTWLTLARSPGNEREFQEGHFSKKPEKLSACGWKPFTQVSEESRGDCSELNNQLPTLRGPGKQSTGEQLPSTQEARESLEKNTNQNSRSMASVSSEIYATKSRNNEDNGEAHLKWRLAVKEMAEKAVSGQLLLPPWNPQSSAPFESKVENESTPLPRPPIRGPESTEWQHILEYQRENDEPKGNTKFGKMDNSDCDKNKHSRWTGLQRFTGIRYPFFRNHEQPEQNEASQASCDTSVGTEKFYSTSSPIGDDFERFQDSFAQRQGYVEENFQIREIFEKNAEILTKPQFQAIQCAEDKQDETLGETPKELKEKNTSLTDIQDLSSITYDQDGYFKETSYKTPKLKHAPTSASTPLSPESISSAASHYEDCLENTTFHVKRGSTFCWNGQEAMRTLSAKFTTVRERAKSLESLLASSKSLPAKLTDSKRLCMLSETGSSNVSAAFVTSTHATKRKSLPRELAEATSQQHLDELPPPAQELLDEIEQLKQQQVSSLASHENTARDLSVTNKDKKHLEEQETNSSKDSSFLSSREIQDLEDTERAHSSLDEDLERFLQSPEENTALLDPTKGSTREKKNKDQDVVEQKRKKKESIKPERRESDSSLGTLEEDELKPCFWKRLGWSEPSRIIVLDQSDLSD
notes: whole, on cells; In the yeast two-hybrid assay it stood as a fusion with a GAL4 domain (pGBKT7 bait or pGADT7 prey vector)
